Results as given in PubChem BioAssay AID2685 (National Center for Advancing Translational Sciences (NCATS), 2010).
In all, about 320,000 compounds went through this assay and about 2,100 (0.66%) were called active. Inconclusive results, whose numbers are uncertain, are shown with a selection of clear calls. The call rests on the fitted dose curve; in most records, active means well fitted inhibition curve with a large enough effect in the signal ratio, with a control signal flat (not every such curve was filed as active); inconclusive means small, poorly fitted or top-dose-only effect, or effect the other way, or a change in a side signal; inactive means flat fitted curve, though single readings scatter; the % refers to the signal ratio. Potencies beside an inconclusive call are fits to weak or partial responses and may not hold up.
On the % scale 0 is the no-effect control and ±100 the full control effect; potency means the concentration at half of the fitted maximal effect.

Test: qHTS Assay for Lipid Storage Modulators in Drosophila S3 Cells
Settings: BODIPY lipid droplet fluorescence, 18-24 h, cells fed with added oleic acid; lipid storage change, negative = inhibition: at 46.1 µM (top of the series) unless noted
How it was run: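 Laser-scanning cytometry quantifies lipid droplet accumulation (500–530 nm total intensity; droplet/cell object ratio) in oleic acid-fed (400 uM added) Drosophila S3 cells treated with a concentration series. 20 uM Triacsin C defined 100% inhibition.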
With `COc1ccc(C(=O)C23CC4CC(C2)CC(C(=O)c2ccc(OC)cc2)(C4)C3)cc1` the lipid storage change, negative = inhibition was inconclusive: 5.58%.
For `Cc1ccc(C(=O)Oc2cc(C)n(C)c(=O)c2)cc1`, the lipid storage change, negative = inhibition was inconclusive: 114%.
In the case of `CCOC(=O)c1sc2nc(C)nc(SCC(=O)N(CC)C3CCS(=O)(=O)C3)c2c1C` (stereo not given), the “lipid storage change, negative = inhibition” value is reported as inactive: 1.68%.
In the case of `O=C(CSc1nc2ccccc2[nH]1)NCc1ccc(F)cc1`, the lipid storage change, negative = inhibition is reported as inconclusive: 0.78%.
With `C=C1C(O)C[C@H]2C(=C)CCC3[C@H](OC(=O)[C@]3(O)CO)[C@@H]12` (stereo not given in full) the Potency was inconclusive: 3.26 µM [falling, partial curve, poor fit].
With `O=C(O)c1ccccc1SC1CC(=O)N(c2cccc3ccccc23)C1=O` (stereo not given) the lipid storage change, negative = inhibition was inconclusive: -11.5%.
For `COCc1cc(=O)[nH]c(/N=C(\N)Nc2ccc(C)cc2)n1`, the Potency was inconclusive: 2.06 µM [activator, single point].
For `C[C@@H](NC(=O)OC(C)(C)C)C(=O)NCC1CCC(C(=O)N[C@@H](Cc2ccccc2)C(=O)O)CC1` (stereo not given in full), the lipid storage change, negative = inhibition was inconclusive: 23.9%.
With `COc1ccc([C@H]2CC(=O)C=C(c3cc(F)ccc3OC)C2)cc1` the Potency was inconclusive: 6.51 µM [activator, partial curve, poor fit].
For `COc1cc(OC)c2c(OC)cccc2n1`, the Potency was inconclusive: 29.1 µM [activator, single point].
For `O=C(Nc1ccnn1C1CCN(Cc2ccccc2)CC1)c1ccccc1Cl`, the lipid storage change, negative = inhibition was inconclusive: -12%.
In the case of `O=C(c1ccc2c(=O)n(Cc3ccccc3)c(=S)[nH]c2c1)N1CCCC1`, the lipid storage change, negative = inhibition is reported as inconclusive: 29.5%.
In the case of `CCN1C(=O)[C@H]2[C@@H](c3ccc(-c4ccccc4)cc3)N[C@@](CC(C)C)(C(=O)OC)[C@H]2C1=O`, the “lipid storage change, negative = inhibition” value is reported as inactive: 7.26%.
In the case of `Cc1ccc(-c2cc(-c3ccccc3[N+](=O)[O-])[nH]n2)c(O)c1`, the lipid storage change, negative = inhibition is reported as inconclusive: 19.6%.
In the case of `CC(=O)c1cccc(NC(=O)C2CCN(S(=O)(=O)c3ccccc3)CC2)c1`, the lipid storage change, negative = inhibition is reported as inconclusive: 54.4%.
In the case of `O=C(O)CCCC(=O)Nc1ccc2c(c1)oc1ccccc12`, the Potency is reported as inconclusive: 29.1 µM [activator, single point].
For `CCN(CC)CCn1c(=N)n(CC(O)c2ccco2)c2ccccc21` (stereo not given), the “lipid storage change, negative = inhibition” value was inactive: -0.632%.
For `COc1ccc(CNC(=O)c2nn(C)c3c2CS(=O)(=O)c2ccccc2-3)cc1`, the Potency was inconclusive: 0.461 µM [activator, full curve, poor fit].
For `COc1ccccc1OCC(=O)NCCS(=O)(=O)N1CCN(c2ccc(F)cc2)CC1`, the lipid storage change, negative = inhibition was inconclusive: 259%.
In the case of `O=C(Nc1ccc(-c2n[nH]c(=S)o2)cc1)c1ccccc1Br`, the Potency is reported as inconclusive: 29.1 µM [activator, single point].
